PubChem BioAssay AID652243 – Drosophila RNAi Screening Center, 2013
Purpose: 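Fly genes required for human androgen receptor driven transcription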 (primary screen). System: Drosophila S2R+ cells. Reagent: long dsRNA against Drosophila genes. Timing: 72 h (48 h, then 24 h hormone). Conditions: synthetic androgen R1881 at 10 nM for 24 h. Measured: 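Per-well raw luminescence of the androgen-driven firefly reporter and of the Renilla control, two replicates each, without normalisation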. Scale: firefly reporter light: higher = more light from androgen-responsive reporter; Renilla control light: higher = more constitutive control signal (cell number, transfection). Active means: 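Hit when the log firefly-to-Renilla ratio dropped or increased by a fixed fold versus the mean of GFP or LacZ controls across duplicate plates; lowering cut given as 1.5 and as 3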. Calls: active = hit: reporter lowered or raised; inactive = no hit.
The screen tested about 24,000 reagents; this is an unselected part of those that have a named target and a result. In the full data, 246 (1%) are marked active. 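Plates not normalised; calls are printed but the firefly/Renilla ratio behind them is not deposited; fold cut for lowering reported inconsistently.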 Raw values vary from plate to plate and are shown uncorrected. Unmarked entries are inactive. Names joined by + are all predicted targets of the reagent. Reagent sequences are not shown. The record does not give: the amount of reagent.

gene knocked down	DRSC id	firefly reporter light, replicate 1	firefly reporter light, replicate 2	Renilla control light, replicate 1	Renilla control light, replicate 2
Elba1 (Early boundary activity 1)	DRSC00276	1.28e5	1.42e5	6.46e5	6.50e5
Elba1 (Early boundary activity 1)	DRSC24062	7.32e5	6.05e5	7.75e5	7.87e5
CG42323	DRSC19629	7.38e5	6.97e5	3.97e6	4.08e6
CG42323	DRSC21397	7.05e5	6.47e5	1.55e6	1.33e6
CG8757	DRSC11039	1.81e5	1.92e5	2.35e6	2.00e6
CG8757	DRSC24587	5.29e5	1.03e6	9.27e5	1.28e6
ACXE (Adenylyl cyclase X E)	DRSC00847	1.98e5	1.40e5	1.98e6	1.27e6
CG32278 + CG14963	DRSC22203	5.74e5	5.20e5	2.02e6	1.99e6
CG1958	DRSC18196	2.62e5	4.30e5	2.74e6	2.94e6
CG1958	DRSC25599	7.21e5	7.96e5	7.77e5	8.04e5
ClpP (Caseinolytic protease proteolytic subunit)	DRSC02806	1.45e6	8.22e5	2.14e6	1.70e6
CG12320	DRSC14498	95232	1.54e5	1.16e6	1.60e6
Cp110 (Centriolar coiled coil protein 110kDa)	DRSC20630	63664	65709	4.54e5	4.43e5
Cp110 (Centriolar coiled coil protein 110kDa)	DRSC21716	5.59e5	4.51e5	2.27e6	2.92e6
TfIIA-L (Transcription factor IIA L)	DRSC16882	1.14e5	72077	7.30e5	8.84e5

Continued (4 carried over from the part before).
gene knocked down	DRSC id	firefly reporter light, replicate 1	firefly reporter light, replicate 2	Renilla control light, replicate 1	Renilla control light, replicate 2
CG12320	DRSC14498	95232	1.54e5	1.16e6	1.60e6
Cp110 (Centriolar coiled coil protein 110kDa)	DRSC20630	63664	65709	4.54e5	4.43e5
Cp110 (Centriolar coiled coil protein 110kDa)	DRSC21716	5.59e5	4.51e5	2.27e6	2.92e6
TfIIA-L (Transcription factor IIA L)	DRSC16882	1.14e5	72077	7.30e5	8.84e5
gcm (glial cells missing)	DRSC03536	1.42e5	81934	1.41e6	9.11e5
CG1602	DRSC06601	2.50e5	2.88e5	1.50e6	9.51e5
CG11586	DRSC08203	6.68e5	7.68e5	1.76e6	2.11e6
CG11586	DRSC27459	2.83e5	2.55e5	7.49e5	7.15e5
CG12609	DRSC19473	1.97e5	1.32e5	8.14e5	2.62e5
Cul3 (Cullin 3)	DRSC03537	8.34e5	2.96e5	1.45e6	1.03e6
Cul3 (Cullin 3)	DRSC21525	6.21e5	4.86e5	1.73e6	1.64e6
Cul3 (Cullin 3)	DRSC26199	4.68e5	3.14e5	9.39e5	5.70e5
Cul3 (Cullin 3)	DRSC27885	5.72e5	3.83e5	2.17e6	1.25e6
flw (flapwing)	DRSC17992	4.19e5	3.81e5	2.92e6	2.73e6
flw (flapwing)	DRSC18774	8.57e5	6.92e5	4.90e6	4.39e6
flw (flapwing)	DRSC25161	9.00e5 (active)	4.45e5	8.11e5	6.15e5
LManIV (Lysosomal alpha-mannosidase IV)	DRSC03222	2.37e5	2.29e5	1.98e6	1.88e6
LManIV (Lysosomal alpha-mannosidase IV)	DRSC27811	2.92e5	2.36e5	4.69e5	7.08e5
CG31751	DRSC02464	1.42e5	1.24e5	1.60e6	9.26e5
CG31751	DRSC02465	97679	85654	1.08e6	9.20e5
CG34132	DRSC38726	1.69e5	5.46e5	7.85e5	2.05e6
CG31659	DRSC00760	1.05e5	1.15e5	8.75e5	1.04e6
C901	DRSC19351	2.70e5	2.43e5	2.18e6	2.64e6
C901	DRSC28397	5.37e5	9.09e5	9.27e5	1.45e6
HP1e (Heterochromatin Protein 1e)	DRSC16379	86883	1.01e5	1.77e6	1.68e6
His2B:CG33870 + His2B:CG33868 + His2B:CG33882 + 21 more	DRSC03757	5.78e5	3.59e5	2.16e5	1.75e5
CG7987	DRSC16357	46038	64905	5.21e5	6.41e5
CG7987	DRSC30002	3.58e5	3.12e5	1.20e6	1.23e6
Arglu1 (Arginine and glutamate rich 1)	DRSC02909	2.10e5	2.64e5	1.82e6	1.40e6
Arglu1 (Arginine and glutamate rich 1)	DRSC28836	4.53e5	2.50e5	1.58e6	1.46e6
